This assay deals with OVCAR8. The assay is described as follows: cell count relative to DMSO vehicle (fold change); higher = more surviving senescent cells (less killing). To be noted: senescence inducer: cisplatin 10 µM 48 h, then 6 d recovery (CP senescent), exposure time 24 h.

Where a name gives a salt, the structure may show the parent alone. ± gives the standard deviation of the averaged measurements. The list shows a part of the results. Single values are uncertain here, since repeats match poorly.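 Cell counts came from imaging DAPI-stained nuclei, excluding as dead any cells lacking phalloidin-stained cytoplasm. Counts per well were normalized to the median vehicle-well count on that plate, and the values were averaged over two replicate plates.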

From the supplement of paper PMC12462457 come the findings set out here.

For `C=C(C)[C@@H](CC=C(C)C)C[C@@]12C[C@@H](CC=C(C)C)C(C)(C)[C@@](CC=C(C)C)(C(=O)C(C(=O)c3ccc(O)c(O)c3)=C1O)C2=O` [Garcinol], the cell count runs as follows: (compound dose 1 µM) 0.9 ± 0.093; (compound dose 5 µM) 0.594 ± 0.31.
For `COc1ccc(C[C@@H]2c3cc(Oc4cc(C[C@@H]5c6cc(OC)c(OC)cc6CCN5C)ccc4O)c(OC)cc3CCN2C)cc1` [Neferine] the same measures were 1.25 ± 0.33 and 1.25 ± 0.064.
For `CC1(C)C(=O)N([C@H]2CCc3c(O)cccc32)c2nc(Nc3cccc(CN4CCCC4)c3)ncc21` the same measures were 1.11 ± 0.074 and 0.409 ± 0.14.
In the case of `Cc1[nH]c2ccccc2c1CCNCc1ccc(/C=C/C(=O)NO)cc1` [Panobinostat (LBH589)], the cell count stood at 0.288 ± 0.055 (compound dose 1 µM) and 0.232 ± 0.018 (compound dose 5 µM).
For `COc1ccnc(C[S+]([O-])c2nc3cc(OC(F)F)ccc3[nH]2)c1OC` (stereo not drawn) [Pantoprazole (sodium hydrate)] the same measures were 1.051 ± 0.0042 and 1.24 ± 0.11.
On to `COc1ccnc(C[S+]([O-])c2nc3cc(OC(F)F)ccc3[nH]2)c1OC` (stereo not drawn) [Pantoprazole (sodium)], for which the cell count reads like this: (compound dose 1 µM) 1.01 ± 0.14; (compound dose 5 µM) 0.651 ± 0.013.
The corresponding values for `Nc1ccn([C@@H]2O[C@H](CO)[C@@H](O)[C@@H]2O)c(=O)n1` [Cytarabine] are 1.15 ± 0.32 and 1.25 ± 0.24.
Turning to `COc1ccc(-c2coc3cc(O)ccc3c2=O)cc1O` [Calycosin], the cell count is 1.09 ± 0.12 (compound dose 1 µM) and 0.779 ± 0.18 (compound dose 5 µM).
On to `Cc1cc(Nc2nc(N[C@@H](C)c3ccc(F)cc3)c(C#N)cc2F)n[nH]1`, for which the cell count runs as follows: (compound dose 1 µM) 1.04 ± 0.15; (compound dose 5 µM) 0.767 ± 0.24.
For `CC(C)c1ccc2c(c1)c(SC(C)(C)C)c(CC(C)(C)C(=O)O)n2Cc1ccc(Cl)cc1` the same measures were 1.36 ± 0.15 and 0.92 ± 0.25.
For `N[C@@H](CCC(=O)Nc1ccc([N+](=O)[O-])cc1)C(=O)O` [GPNA (hydrochloride)] the same measures were 1.0485 ± 0.00071 and 1.2 ± 0.033.
As to `CCN1CCN(Cc2ccc(-c3cc4c(N[C@H](C)c5ccccc5)ncnc4[nH]3)cc2)CC1`, the cell count is 0.966 ± 0.048 (compound dose 1 µM) and 0.848 ± 0.025 (compound dose 5 µM).
The corresponding values for `Cc1nc(Nc2ncc(C(=O)Nc3c(C)cccc3Cl)s2)cc(N2CCN(CCO)CC2)n1` [Dasatinib] are 0.0915 ± 0.012 and 0.077 ± 0.018.
On to `COc1cc(N2CCC(N3CCN(C)CC3)CC2)ccc1Nc1ncnc(Nc2ccccc2S(=O)(=O)C(C)C)n1`, for which the cell count amounted to 1.1 ± 0.28 (compound dose 1 µM) and 0.522 ± 0.17 (compound dose 5 µM).
For `CN1C(=O)[C@@H](NC(=O)c2n[nH]c(Cc3ccccc3)n2)COc2ccccc21` the same measures were 1.097 ± 0.0057 and 1.15 ± 0.09.
Regarding `Cc1cc(=O)oc2c(O)c(O)ccc12`, the cell count worked out at 0.952 ± 0.14 (compound dose 1 µM) and 0.764 ± 0.2 (compound dose 5 µM).
Take `CC(C)(C)c1ccc(C(O)CCCN2CCC(C(O)(c3ccccc3)c3ccccc3)CC2)cc1` (stereo not drawn): the cell count worked out at 0.943 ± 0.0099 (compound dose 1 µM) and 0.483 ± 0.35 (compound dose 5 µM).
For `CC(C)(c1ccc(OCC(O)CO)cc1)c1ccc(OCC(O)CCl)cc1` (stereo not drawn) the same measures were 1.11 ± 0.23 and 0.887 ± 0.43.
For `CCOC(=O)c1[nH]c2cc(Cl)ccc2c1C(C(=O)NC(C)(C)C)N(C=O)Cc1ccc(Cl)cc1` (stereo not drawn) the same measures were 1.05 ± 0.097 and 1.16 ± 0.069.
As for `CCc1c(Cl)c(O)c(Cl)c(O)c1C(=O)O[C@H]1[C@H](O)[C@H](OC)[C@H](OC/C2=C\C=C\C[C@H](O)/C(C)=C/[C@H](CC)[C@@H](O[C@@H]3OC(C)(C)[C@@H](OC(=O)C(C)C)[C@H](O)[C@@H]3O)/C(C)=C/C(C)=C/C[C@@H]([C@@H](C)O)OC2=O)O[C@@H]1C` [Fidaxomicin], the cell count was 1.23 ± 0.087 (compound dose 1 µM) and 1.03 ± 0.18 (compound dose 5 µM).
For `O=C1NCCCc2c1oc1ccc(O)cc21` the same measures were 1.24 ± 0.081 and 1.14 ± 0.26.
For `COc1cc(-c2cc(=O)c3c(O)c(OC)c(O)cc3o2)ccc1O` [Jaceosidin] the same measures were 0.901 ± 0.1 and 0.69 ± 0.051.
Consider `CCCOc1ccc(S(=O)(=O)N2CCN(CCO)CC2)cc1-c1nc2c(CCC)cn(CC)c2c(=O)[nH]1` [Mirodenafil (dihydrochloride)], for which the cell count reads like this: (compound dose 1 µM) 1.11 ± 0.025; (compound dose 5 µM) 1.22 ± 0.12.
With `N#Cc1c(NC(=O)c2cccc3ccccc23)sc2c1CCCC2`, the cell count came out at 0.833 ± 0.034 (compound dose 1 µM) and 0.877 ± 0.11 (compound dose 5 µM).
For `CC(C)C(C)C(O)C(O)C(C)C1CCC2C3COC(=O)C4CC(O)C(O)CC4(C)C3CCC12C` (stereo not drawn) [Brassinolide] the same measures were 1.08 ± 0.1 and 1.18 ± 0.24.
For `CCN(CC)CCCC(C)Nc1nc(C)cc(Nc2ccc3nc(C)cc(N)c3c2)n1` (stereo not drawn) the same measures were 1.07 ± 0.19 and 0.865 ± 0.019.
The corresponding values for `C#CCC(Cc1cnc2nc(N)nc(N)c2n1)c1ccc(C(=O)N[C@@H](CCC(=O)O)C(=O)O)cc1` (stereo partly drawn) [Pralatrexate] are 0.864 ± 0.23 and 0.956 ± 0.12.
As to `C=C(C)[C@@H]1CC[C@]2(C(=O)OCC(N)(CO)CO)CC[C@]3(C)[C@H](CC[C@@H]4[C@@]5(C)CC[C@H](OC(C)=O)C(C)(C)[C@@H]5CC[C@]43C)[C@@H]12`, the cell count is, setting by setting: (compound dose 1 µM) 1.08 ± 0.15; (compound dose 5 µM) 0.324 ± 0.064.
Turning to `Nc1cccc(Nc2ncc(-c3ccc(Cl)cc3)o2)c1`, the cell count reads like this: (compound dose 1 µM) 1.529 ± 0.011; (compound dose 5 µM) 1.68 ± 0.23.
For `Cc1ccc2nc(N)[nH]c(=O)c2c1Sc1ccncc1` [Nolatrexed dihydrochloride] the same measures were 0.964 ± 0.025 and 1.1 ± 0.17.
The corresponding values for `C=C[C@]1(C)CC[C@@H](C(=C)C)C[C@H]1C(=C)C` [β-Elemene] are 1.17 ± 0.2 and 1.17 ± 0.24.
For `C=C(C)[C@@H]1CC=C(CO)CC1` [(S)-(-)-Perillyl alcohol] the same measures were 1.05 ± 0.17 and 0.826 ± 0.062.
`NS(=O)(=O)c1ccc(-n2nc(C(F)(F)F)cc2-c2ccc(Cl)cc2)cc1`: the cell count by setting is: (compound dose 1 µM) 1.26 ± 0.064; (compound dose 5 µM) 1.15 ± 0.042.
The corresponding values for `O=C1NC(=O)C(=Cc2ccc(-c3ccc(F)cc3)o2)S1` (stereo in doubt) are 0.807 ± 0.012 and 0.723 ± 0.22.
